Assay: Sensory test for the respectively processed DFA III by 20 expert panelists
Conditions: 20 panelists; for Oral sense of dissolution / Total evaluation: scale +2 good to -2 worse; for Sharpness of sweetness: scale +2 plain and simple to -2 over-rich; for Sweetness: scale +2 sweet to -2 not sweet
Protocol: Crystals of DFA III were finely pulverized with a mortar, to which water was added in an amount of 10 parts per 100 parts of DFA III, and the mixture was homogenized. This was granulated with an extrusion granulator (Fuji Powdal Co.; FINERYUZER, type EXR-60, performance 40-150 kg/hr) and dried at 70° C. with a blower-type thermostatic incubator (Yamato Science Co.; type DN910) for 3 hours to yield granular DFA III.
By 20 expert panelists, crystal DFA III; finely pulverized DFA III and granular DFA III were subjected to a sensory test.

[1] = granular DFA III evaluated to finely pulverized DFA III
[2] = finely pulverized DFA III evaluated to crystal DFA III

SMILES | Oral sense of dissolution [1] | Total evaluation [1] | Sharpness of sweetness [1] | Sweetness [1] | Oral sense of dissolution [2] | Total evaluation [2] | Sharpness of sweetness [2] | Sweetness [2]
OC[C@H]1O[C@@]2(CO[C@]3(CO)O[C@H](CO)[C@@H](O)[C@@H]3O2)[C@@H](O)[C@@H]1O [granular DFA III] | +0.5 | +0.5 | +0.2 | +0.1 |  |  |  | 
OC[C@H]1O[C@@]2(CO[C@]3(CO)O[C@H](CO)[C@@H](O)[C@@H]3O2)[C@@H](O)[C@@H]1O [finely pulverized DFA III] |  |  |  |  | +1.4 | +1.7 | +0.5 | +1.2
